Measured values from the supplement of paper PMC4604168 (melanoma cell lines).
Some of the results follow. Single values are uncertain, as repeats are few or missing.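 The apoptosis fraction was the count of cleaved-PARP antibody-stained nuclei relative to all DNA-stained nuclei, imaged in 1,536-well plates. Screening doses were set so most cells survived, and baseline and induced cleaved-PARP levels vary greatly across cell lines.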

System: WM3619
Experiment: cleaved PARP positive nuclei fraction relative to DMSO control; melanoma cells; higher = more apoptosis
Settings: library dose: low library concentration; 72 h

| Structure (SMILES) | cleaved PARP positive nuclei fraction [%] |
| --- | --- |
| COc1cc2ncnc(Nc3ccc(Oc4ccccc4)cc3)c2cc1OC + C/C(O)=C(\C#N)C(=O)Nc1cc(Br)ccc1Br [LFM-A13] (first compound 2 µM, partner dose 2 µM) | 95.1 |
| C[C@]12O[C@H](C[C@]1(O)CO)n1c3ccccc3c3c4c(c5c6ccccc6n2c5c31)CNC4=O [Lestaurtinib] + CCN(CC)CCCCNc1ncc2cc(-c3cc(OC)cc(OC)c3)c(NC(=O)NC(C)(C)C)nc2n1 [PD173074] (first compound 0.004 µM, partner dose 0.1 µM) | 96.7 |
| NC(=O)Nc1cc(-c2cccc(F)c2)sc1C(=O)N[C@H]1CCCNC1 + C/C(O)=C(\C#N)C(=O)Nc1cc(Br)ccc1Br [LFM-A13] (first compound 0.02 µM, partner dose 2 µM) | 172 |
| Cc1ccc(Nc2nccc(N(C)c3ccc4c(C)n(C)nc4c3)n2)cc1S(N)(=O)=O [Pazopanib] + Cn1cc(C2=C(c3cn(C4CCN(Cc5ccccn5)CC4)c4ccccc34)C(=O)NC2=O)c2ccccc21 [Enzastaurin] (first compound 0.4 µM, partner dose 0.8 µM) | 84.1 |
| Cc1cc(Nc2cc(N3CCN(C)CC3)nc(Sc3ccc(NC(=O)C4CC4)cc3)n2)n[nH]1 [Tozasertib] + C/C(O)=C(\C#N)C(=O)Nc1cc(Br)ccc1Br [LFM-A13] (first compound 0.006 µM, partner dose 2 µM) | 112 |
| N.N.[Cl][Pt][Cl] [cisplatin] + O=c1cc(-c2cccc3c2Sc2ccccc2S3)oc(N2CCOCC2)c1 [KU55933] (first compound 1.6 µM, partner dose 1 µM) | 89.7 |
| Cc1cc(SCc2sc(-c3ccc(C(F)(F)F)c(F)c3)nc2C)ccc1OCC(=O)O + O=c1cc(-c2cccc3c2Sc2ccccc2S3)oc(N2CCOCC2)c1 [KU55933] (first compound 2 µM, partner dose 1 µM) | 92.8 |
| Cn1cc(C2=C(c3cn(C4CCN(Cc5ccccn5)CC4)c4ccccc34)C(=O)NC2=O)c2ccccc21 [Enzastaurin] + CN(c1ncccc1CNc1nc(Nc2ccc3c(c2)CC(=O)N3)ncc1C(F)(F)F)S(C)(=O)=O [PF562271] (first compound 0.8 µM, partner dose 0.08 µM) | 83.5 |
| CN(NC(=O)CC(=O)NN(C)C(=S)c1ccccc1)C(=S)c1ccccc1 + Cc1cc(SCc2sc(-c3ccc(C(F)(F)F)c(F)c3)nc2C)ccc1OCC(=O)O [GW0742] (first compound 0.006 µM, partner dose 2 µM) | 77.1 |
| C[C@]12O[C@H](C[C@]1(O)CO)n1c3ccccc3c3c4c(c5c6ccccc6n2c5c31)CNC4=O [Lestaurtinib] + COc1ccc(COc2ccc(Cc3cnc(N)nc3N)cc2OC)cc1 [GW2580] (first compound 0.004 µM, partner dose 1 µM) | 90.1 |
| C[C@]12O[C@H](C[C@]1(O)CO)n1c3ccccc3c3c4c(c5c6ccccc6n2c5c31)CNC4=O [Lestaurtinib] + C[C@@H]1CCN(C(=O)CC#N)C[C@@H]1N(C)c1ncnc2[nH]ccc12 [CP690550] (first compound 0.004 µM, partner dose 1 µM) | 89.2 |
| COCC[n+]1c2c(n(Cc3cnccn3)c1C)C(=O)c1ccccc1C2=O + C/C(O)=C(\C#N)C(=O)Nc1cc(Br)ccc1Br [LFM-A13] (first compound 0.0004 µM, partner dose 2 µM) | 206 |
| C[C@]12O[C@H](C[C@]1(O)CO)n1c3ccccc3c3c4c(c5c6ccccc6n2c5c31)CNC4=O [Lestaurtinib] + OCCn1cc(-c2cnc3nnn(Cc4ccc5ncccc5c4)c3n2)cn1 [PF04217903] (first compound 0.004 µM, partner dose 1 µM) | 94.5 |
| COc1cc([C@@H]2c3cc4c(cc3[C@@H](O[C@@H]3O[C@@H]5CO[C@@H](C)O[C@H]5[C@H](O)[C@H]3O)[C@H]3COC(=O)[C@H]23)OCO4)cc(OC)c1O [etoposide] + Cn1cc(C2=C(c3cn(C4CCN(Cc5ccccn5)CC4)c4ccccc34)C(=O)NC2=O)c2ccccc21 [Enzastaurin] (first compound 0.02 µM, partner dose 0.8 µM) | 177 |
| C[As](C)SC[C@H](NC(=O)CC[C@H](N)C(=O)O)C(=O)NCC(=O)O [Darinaparsin] + CN(NC(=O)CC(=O)NN(C)C(=S)c1ccccc1)C(=S)c1ccccc1 [STA4783] (first compound 0.4 µM, partner dose 0.006 µM) | 137 |

Reprinted at random: 2 records from the list

| Structure (SMILES) | cleaved PARP positive nuclei fraction [%] |
| --- | --- |
| CN(NC(=O)CC(=O)NN(C)C(=S)c1ccccc1)C(=S)c1ccccc1 + Cc1cc(SCc2sc(-c3ccc(C(F)(F)F)c(F)c3)nc2C)ccc1OCC(=O)O [GW0742] (first compound 0.006 µM, partner dose 2 µM) | 77.1 |
| C[As](C)SC[C@H](NC(=O)CC[C@H](N)C(=O)O)C(=O)NCC(=O)O [Darinaparsin] + CN(NC(=O)CC(=O)NN(C)C(=S)c1ccccc1)C(=S)c1ccccc1 [STA4783] (first compound 0.4 µM, partner dose 0.006 µM) | 137 |
